From patent publication US20120095193A1
No constants are given. Whether binding was seen depends on the method and setting. Some entries that bind do so weakly or less than the wild type.

Amino acid sequences for entries named in this document (tags omitted). A change or cut given only in a name is not applied to a line headed by its entry.
UniProt Q9UNA0: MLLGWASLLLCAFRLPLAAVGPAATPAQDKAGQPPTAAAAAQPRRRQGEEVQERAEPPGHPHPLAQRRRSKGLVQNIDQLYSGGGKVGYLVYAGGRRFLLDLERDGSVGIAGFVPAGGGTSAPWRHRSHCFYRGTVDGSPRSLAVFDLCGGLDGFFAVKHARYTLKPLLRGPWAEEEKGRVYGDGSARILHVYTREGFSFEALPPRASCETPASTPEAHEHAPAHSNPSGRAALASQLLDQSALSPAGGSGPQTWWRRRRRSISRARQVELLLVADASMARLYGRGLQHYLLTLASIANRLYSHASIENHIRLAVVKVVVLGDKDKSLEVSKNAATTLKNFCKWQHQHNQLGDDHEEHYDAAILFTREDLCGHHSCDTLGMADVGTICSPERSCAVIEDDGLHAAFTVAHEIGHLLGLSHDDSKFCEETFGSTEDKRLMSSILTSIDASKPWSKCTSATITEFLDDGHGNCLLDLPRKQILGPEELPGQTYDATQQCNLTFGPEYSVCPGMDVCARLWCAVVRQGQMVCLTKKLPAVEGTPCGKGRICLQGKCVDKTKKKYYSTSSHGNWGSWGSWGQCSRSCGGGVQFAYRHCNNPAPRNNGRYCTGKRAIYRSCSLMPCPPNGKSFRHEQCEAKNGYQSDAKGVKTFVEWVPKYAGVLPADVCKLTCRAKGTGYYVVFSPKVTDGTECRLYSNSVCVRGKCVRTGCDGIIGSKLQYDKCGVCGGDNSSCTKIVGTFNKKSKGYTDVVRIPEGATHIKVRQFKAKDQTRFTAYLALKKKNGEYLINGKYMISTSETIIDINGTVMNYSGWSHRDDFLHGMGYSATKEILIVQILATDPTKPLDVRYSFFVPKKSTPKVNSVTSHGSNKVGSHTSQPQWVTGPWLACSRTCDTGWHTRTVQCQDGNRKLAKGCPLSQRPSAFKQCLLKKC

Target: human ADAMTS5 (human) (UniProt Q9UNA0)
Test: ELISA on coated recombinant human ADAMTS5 (0.2 ug/ml), antibody in culture supernatant, anti human kappa peroxidase, absorbance 490 nm

binding	Binder
binds	BPC1622 (antibody, human IgG1, kappa, V domains shown) VH: EVKLEESGGGLVQPGGSMKLSCAASGFTSSDAWMDWVRQSPEKGLEWVAEIRNKANNHARHYAESVKGRFTISRDDSKSSVYLQMNSLRAEDSGIYYCTRTYYYGSSYGYCDVWGTGTLVTVSS VL: DIQMTQSPASLSASVGETVTITCRTSENIYSYLAWYQQKQGKSPQLLVYNAKTLAEGVPSRFSGSGSGTQFSLKINSLQPEDFGSYSCQHHYGTPWTFGGGTKLEIKR
binds	BPC1634 (antibody, human IgG1, kappa, V domains shown) VH: EVQLVESGGGLVQPGGSLRLSCAASGFTFSDAWMDWVRQAPGKGLEWVAEIRNKANNHARHYAESVKGRFTISRDNAKNSLYLQMNSLRAEDTAVYYCARTYYYGSSYGYCDVWGQGTLVTVSS VL: DIQMTQSPSSLSASVGDRVTITCRTSENIYSYLAWYQQKPGKAPKLLIYNAKTLAEGVPSRFSGSGSGTDFTLTISSLQPEDFATYYCQHHYGTPWTFGQGTKLEIKR
binds	BPC1646 (antibody, human IgG1, kappa, V domains shown) VH: EVQLVESGGGLVQPGGSLRLSCAASGFTSSDAWMDWVRQAPGKGLEWVAEIRNKANNHARHYAESVKGRFTISRDNAKNSVYLQMNSLRAEDTAVYYCTRTYYYGSSYGYCDVWGQGTLVTVSS VL: DIQMTQSPSSLSASVGDRVTITCRTSENIYSYLAWYQQKPGKAPKLLVYNAKTLAEGVPSRFSGSGSGTDFTLTISSLQPEDFATYYCQHHYGTPWTFGQGTKLEIKR
binds	BPC1643 (antibody, human IgG1, kappa, V domains shown) VH: EVQLVESGGGLVQPGGSLRLSCAASGFTSSDAWMDWVRQAPGKGLEWVAEIRNKANNHARHYAESVKGRFTISRDNAKNSLYLQMNSLRAEDTAVYYCARTYYYGSSYGYCDVWGQGTLVTVSS VL: DIQMTQSPSSLSASVGDRVTITCRTSENIYSYLAWYQQKPGKAPKLLVYNAKTLAEGVPSRFSGSGSGTDFTLTISSLQPEDFATYYCQHHYGTPWTFGQGTKLEIKR
binds	BPC1642 (antibody, human IgG1, kappa, V domains shown) VH: EVQLVESGGGLVQPGGSLRLSCAASGFTFSDAWMDWVRQAPGKGLEWVAEIRNKANNHARHYAESVKGRFTISRDNAKNSLYLQMNSLRAEDTAVYYCTRTYYYGSSYGYCDVWGQGTLVTVSS VL: DIQMTQSPSSLSASVGDRVTITCRTSENIYSYLAWYQQKPGKAPKLLVYNAKTLAEGVPSRFSGSGSGTDFTLTISSLQPEDFATYYCQHHYGTPWTFGQGTKLEIKR
binds	BPC1645 (antibody, human IgG1, kappa, V domains shown) VH: EVQLVESGGGLVQPGGSLRLSCAASGFTSSDAWMDWVRQAPGKGLEWVAEIRNKANNHARHYAESVKGRFTISRDDAKNSLYLQMNSLRAEDTAVYYCTRTYYYGSSYGYCDVWGQGTLVTVSS VL: DIQMTQSPSSLSASVGDRVTITCRTSENIYSYLAWYQQKPGKAPKLLVYNAKTLAEGVPSRFSGSGSGTDFTLTISSLQPEDFATYYCQHHYGTPWTFGQGTKLEIKR
binds	BPC1647 (antibody, human IgG1, kappa, V domains shown) VH: EVQLVESGGGLVQPGGSLRLSCAASGFTSSDAWMDWVRQAPGKGLEWVAEIRNKANNHARHYAESVKGRFTISRDDAKNSVYLQMNSLRAEDTAVYYCTRTYYYGSSYGYCDVWGQGTLVTVSS VL: DIQMTQSPSSLSASVGDRVTITCRTSENIYSYLAWYQQKPGKAPKLLVYNAKTLAEGVPSRFSGSGSGTDFTLTISSLQPEDFATYYCQHHYGTPWTFGQGTKLEIKR
binds	BPC1644 (antibody, human IgG1, kappa, V domains shown) VH: EVQLVESGGGLVQPGGSLRLSCAASGFTSSDAWMDWVRQAPGKGLEWVAEIRNKANNHARHYAESVKGRFTISRDNAKNSLYLQMNSLRAEDTAVYYCTRTYYYGSSYGYCDVWGQGTLVTVSS VL: DIQMTQSPSSLSASVGDRVTITCRTSENIYSYLAWYQQKPGKAPKLLVYNAKTLAEGVPSRFSGSGSGTDFTLTISSLQPEDFATYYCQHHYGTPWTFGQGTKLEIKR
